{"source": "patent US10117956B2", "about": "(Institute of Nuclear Energy Research Atomic Energy Council, …, priority 2013, dated 2018)", "test": "general procedure: Fmoc solid-phase peptide synthesis; HBTU and HOBt, DIEA", "details": "whole synthesis", "note": "Where a sequence shows no end group, the ends are not given."}
{"sequence": "CQWAVGHLM", "values": [{"measurement": "isolated yield", "result": "about 60%"}]}
